In paper PMC6818788 one finds binding data, which are given here for eight molecules.

No constants are given. Whether binding was seen depends on the method and setting. For some assays here: In cells and extracts the contact can be indirect. Some results given as binding are weak or reduced against the parent protein; the word gives no strength. For some assays here: Sequences can lack the tags named with a protein.

The target of one assay is T1, Flag-IRF7 (mouse) (UniProt P70434).
T1 sequence: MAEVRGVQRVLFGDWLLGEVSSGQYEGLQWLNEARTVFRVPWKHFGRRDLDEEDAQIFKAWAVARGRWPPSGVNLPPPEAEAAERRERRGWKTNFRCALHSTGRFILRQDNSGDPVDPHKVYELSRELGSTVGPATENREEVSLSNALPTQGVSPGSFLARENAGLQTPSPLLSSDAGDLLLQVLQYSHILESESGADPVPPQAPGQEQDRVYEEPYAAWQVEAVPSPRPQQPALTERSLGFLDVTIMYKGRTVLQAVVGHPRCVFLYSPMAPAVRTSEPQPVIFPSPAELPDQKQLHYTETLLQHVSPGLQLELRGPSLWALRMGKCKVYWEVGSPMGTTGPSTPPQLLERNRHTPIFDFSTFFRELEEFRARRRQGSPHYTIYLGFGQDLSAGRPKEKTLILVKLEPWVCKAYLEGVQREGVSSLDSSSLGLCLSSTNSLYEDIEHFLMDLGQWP
The assay is described as follows: co-IP; HEK293T cells co-transfected with Flag-IRF7 and HA-tagged p200 family protein or mutant; lysate immunoprecipitated with anti-Flag, immunoblot with anti-HA. For orientation: In western blotting, separated proteins are transferred to a membrane and probed.

Assay [1] has as its target T2, IRF7 (endogenous) (mouse (endogenous in NIH3T3)) (UniProt P70434).
T2 sequence: T1 sequence
The assay is described as follows: co-IP; endogenous proteins; NIH3T3 cells infected with SeV for 8 hrs; lysate immunoprecipitated with anti-IRF7 antibody or control IgG, immunoblot with anti-IFI204.

The target in a further assay is T3, GST-IFI204 (mouse) (UniProt P0DOV2).
T3 sequence: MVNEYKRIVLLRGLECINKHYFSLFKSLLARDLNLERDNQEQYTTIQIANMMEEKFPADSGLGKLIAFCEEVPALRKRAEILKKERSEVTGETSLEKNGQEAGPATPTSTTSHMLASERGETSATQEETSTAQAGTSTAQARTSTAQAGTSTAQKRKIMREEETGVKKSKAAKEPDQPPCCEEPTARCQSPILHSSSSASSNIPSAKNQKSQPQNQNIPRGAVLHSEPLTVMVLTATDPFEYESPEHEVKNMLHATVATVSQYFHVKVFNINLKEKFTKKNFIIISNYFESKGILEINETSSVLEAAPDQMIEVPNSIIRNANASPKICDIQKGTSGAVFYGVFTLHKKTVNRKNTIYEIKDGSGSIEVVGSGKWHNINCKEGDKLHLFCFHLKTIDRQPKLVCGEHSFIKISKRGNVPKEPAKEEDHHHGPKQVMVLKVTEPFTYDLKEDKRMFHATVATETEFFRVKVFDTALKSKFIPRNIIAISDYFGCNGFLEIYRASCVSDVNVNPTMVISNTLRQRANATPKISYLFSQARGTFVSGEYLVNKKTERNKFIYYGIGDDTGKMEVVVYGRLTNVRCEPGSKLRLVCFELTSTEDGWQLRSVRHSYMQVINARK
The assay is described as follows: pull-down; purified GST-IFI204 or GST incubated with MBP-IRF7 or MBP, pulled down with glutathione resin beads, Western blotting; both purified.

B1: HA-MNDAL (protein, UniProt D0QMC3 1-538)
chain: MAEYKKIVLLKGLESMEDYQFRTVKSLLRKELKLTKKLQEDYDRIQLADWMEDKFPKYAGLDKLIKVCEHIKDLKDLAKKLKTEKAKVQKKKQGKCKTAVKKKGQDELSSSESLFINKESYKSVPSSKKKGKAIAKTEGEKKNKLTQDQDHLPETSGTDIKTEEDCLQNSPKPPPTSPSSSSNKKKRKEITKTEGGKKKKLTQEQAQLPEPLGTDIKKDEDCLQTPPKPPPTPPSSSLNKKRKSRREEETGVKKSKAAKEPDQPPCCEEPTARCQSPILHSSSSASSNIPSATNQKPQPQNQNIPRGAVLHSEPLTVMVLTATDPFEYESPEHEVKNMFHATVATVSQYFHVKVFNINLKEKFTKKNFIIISNYFESKGILEINETSSVLKADPDQMIEVPNNIIRNANASPKICDIQKGTSGAVFYGVFTLHKKKVKTQNTSYEIKDGSGSIEVEGSGQWHNINCKEGDKLHLFCFHLKRERGQPKLVCGDHSFVKIKVTKAGKKKEASTVLSSTKNEEENNYPKDGIKVEMPDYHV
For B1, in the assay with Flag-IRF7 (mouse), the binding result is listed as “binds”.

B2: HA-IFI209 (protein, UniProt Q8BV49 1-420)
chain: MVNEYKRIVLLTGLMGINDHDFRMVKSLLSKELKLNRMQDQYDRVKIADLMEDKFPKDAGVDQLIKLYKQIPGLGDIANKLKNEKAKAKRTRTGKRKTAAKRQRQEEPSTSQPMSTTNEDAEPESGRSTPDTQVAQLSLPTASRRNQAIQISPTIASSSGQTSSRSSETLQSIIQSPKTPKRPSSSILDPPVSSGTASSSAQALGVPLATIAKRQRLKNVPKEPSEENGHQQGSKKVMVLKVTEPFSYDVTEEKMFHATVATETEFFRVKVFDIVLKEKFIPNKVLTISNYVGCNGFINIYSASSVSEVNDGEPMNIPLSLRKSANRTPKINYLCSKKRGIFVNGVFTVCKKEEKWNYICYEIGDDTGMMEVEVYGRLTNIACNPGDKLRLICFKLIPDEEKAQLRSTTHSNMQVIKAKN
As to B2, in the assay with Flag-IRF7 (mouse), the binding result is recorded as “binds”.

B3: HA-MNDA (protein, UniProt P41218 1-407)
chain: MVNEYKKILLLKGFELMDDYHFTSIKSLLAYDLGLTTKMQEEYNRIKITDLMEKKFQGVACLDKLIELAKDMPSLKNLVNNLRKEKSKVAKKIKTQEKAPVKKINQEEVGLAAPAPTARNKLTSEARGRIPVAQKRKTPNKEKTEAKRNKVSQEQSKPPGPSGASTSAAVDHPPLPQTSSSTPSNTSFTPNQETQAQRQVDARRNVPQNDPVTVVVLKATAPFKYESPENGKSTMFHATVASKTQYFHVKVFDINLKEKFVRKKVITISDYSECKGVMEIKEASSVSDFNQNFEVPNRIIEIANKTPKISQLYKQASGTMVYGLFMLQKKSVHKKNTIYEIQDNTGSMDVVGSGKWHNIKCEKGDKLRLFCLQLRTVDRKLKLVCGSHSFIKVIKAKKNKEGPMNVN
For the molecule B3, in the assay with Flag-IRF7 (mouse), the binding entry was “binds”.

B4: HA-IFI204 (protein, UniProt P0DOV2 1-619)
chain: T3 sequence
Take B4: the binding entry in the assay with Flag-IRF7 (mouse) is given as “binds”.

B5: IFI204 (endogenous) (protein, UniProt P0DOV2 1-619)
chain: T3 sequence
As to B5, the binding result in assay [1] is reported as “binds”.

B6: HA-AIM2 (protein, UniProt O14862 1-343)
chain: MESKYKEILLLTGLDNITDEELDRFKFFLSDEFNIATGKLHTANRIQVATLMIQNAGAVSAVMKTIRIFQKLNYMLLAKRLQEEKEKVDKQYKSVTKPKPLSQAEMSPAASAAIRNDVAKQRAAPKVSPHVKPEQKQMVAQQESIREGFQKRCLPVMVLKAKKPFTFETQEGKQEMFHATVATEKEFFFVKVFNTLLKDKFIPKRIIIIARYYRHSGFLEVNSASRVLDAESDQKVNVPLNIIRKAGETPKINTLQTQPLGTIVNGLFVVQKVTEKKKNILFDLSDNTGKMEVLGVRNEDTMKCKEGDKVRLTFFTLSKNGEKLQLTSGVHSTIKVIKAKKKT
For the molecule B6, the binding result in the assay with Flag-IRF7 (mouse) is “binds”.

B7: MBP-IRF7 (protein, UniProt P70434 1-457)
chain: T1 sequence
Regarding B7, the binding result in the assay with GST-IFI204 (mouse) is listed as “binds”.

B8: HA-IFI202 (protein, UniProt Q9R002 1-445)
chain: MSNRNLRSSTNSEFSEGQHQTPSSDSSGHGEDQPQASPGPNKKSHTPKKNISKGAVLHEKPMTVMVLTATEPFNYKEGKENMFHATVATESQYYRVKVFNMDLKEKFTENKFITISKYFNSSGILEINETATVSEAAPNQIIEVPKNIIRSAKETLKISKIKELDSGTLIYGVFAVEKKKVNDKSITFKIKDNEDNIKVVWDKKQHNINYEKGDKLQLFSFHLRKGNGKPILHSGNHSFIKGEKLLKESFEGDGYHKGPKQVVALKATKLFTYDSIKSKKMFHATVATDTEFFRVMVFEENLEKKFIPGNTIALSDYFGMYGSLAIHEYSSVSEVKSQNKEDSSSSDERLIEHLKICDLHLQTKERLVDGEFKVYRKSTGNNCICYGIWDDTGAMKVVVSGQLTSVNCEIGNTIRLVCFELTSNADEWFLRSTRYSYMEVIMPEK
As to B8, the binding entry in the assay with Flag-IRF7 (mouse) is “binds”.
